PubChem BioAssay AID504764, Drosophila RNAi Screening Center, 2011

Purpose: 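Knock-downs that raise or lower a Notch target reporter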 (primary screen)
Cells: Drosophila Kc167 cells
Knock-down reagent: long dsRNA against Drosophila genes
Duration: about 5 days (4 days dsRNA, then 24 h after transfection)
Conditions: transfection of constitutively active membrane-tethered Notch lacking the extracellular domain, read 24 h later
Measured: 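Light from a Notch-responsive E(spl)m3 luciferase reporter under active Notch, with control-promoter and no-Notch reporter wells to normalise; raw counts from paired wells a and b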
Reading the numbers: induced reporter light, run 1, well a and induced reporter light, run 1, well b: higher = more light from the Notch target reporter with active Notch; control promoter light, run 1, well a and control promoter light, run 1, well b: higher = more light from the viral control promoter (cell number, transfection, viability); uninduced reporter light, run 1, well a: higher = more light from the Notch target reporter without active Notch
Hit rule: 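Hit if the duplicate-averaged log2 ratio of induced to control-promoter light gives a plate-wise z beyond ±2, or induced to uninduced beyond ±1.8; weak-control or discordant-duplicate wells dropped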
Meaning of the calls: active = modifier hit (raised or lowered Notch signal); inactive = not a hit
The deposit covers about 22,000 reagents; shown is a random part of those with a known target gene and a result. Of all reagents, 403 (1.9%) got an active call. 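Unnormalised raw counts per well; ratio z-scores behind the hit calls and whether each hit raises or lowers signal are not deposited.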 A plus sign joins genes that one reagent is predicted to hit. The record does not give: the amount of reagent.

target gene	dsRNA	induced reporter light, run 1, well a	induced reporter light, run 1, well b	control promoter light, run 1, well a	control promoter light, run 1, well b	uninduced reporter light, run 1, well a	outcome
CG10211	DRSC02027	1.22e5	1.24e5	1.90e5	86105	16475	inactive
CG11350	DRSC08181	1.81e5	1.98e5	1.88e5	1.84e5	5575	inactive
CG10307	DRSC04057	2.30e5	2.27e5	1.78e5	1.89e5	16295	inactive
Dscam4	DRSC08911	1.51e5	1.30e5	1.53e5	1.61e5	9905	inactive
Dscam4	DRSC08913	1.88e5	1.96e5	2.00e5	2.22e5	13700	inactive
Dscam4	DRSC10031	1.53e5	1.23e5	1.76e5	1.21e5	6010	inactive
Dscam4	DRSC10329	1.53e5	1.68e5	2.51e5	1.53e5	5715	inactive
Dscam4	DRSC10765	1.89e5	2.04e5	2.65e5	1.60e5	9765	inactive
CG9265	DRSC03178	38330	29310	34575	33150	2735	inactive
CG9265	DRSC03179	61310	36240	38015	67145	2380	inactive
Fnta	DRSC00557	1.59e5	1.54e5	1.88e5	2.05e5	18475	inactive
CG15196	DRSC19643	1.10e5	98015	1.54e5	1.51e5	7630	inactive
Smyd5	DRSC15483	2.55e5	2.32e5	2.39e5	2.74e5	20595	inactive
CG42634 + CG42635	DRSC02450	1.21e5	1.21e5	1.23e5	1.43e5	9830	inactive
CG10147	DRSC09706	2.48e5	2.68e5	3.88e5	2.84e5	14920	inactive
CG11670	DRSC14342	3.06e5	3.03e5	2.59e5	2.53e5	19855	inactive
CG30384	DRSC06032	2.05e5	2.27e5	2.69e5	1.97e5	18525	inactive
CG4456 + Hsp22	DRSC11187	2.07e5	1.31e5	2.37e5	1.83e5	9175	inactive
CG4456 + Hsp22	DRSC11192	95460	93460	73080	24265	9390	inactive
CG15765	DRSC18071	28860	25615	24020	26540	7538	inactive
CG32642	DRSC18959	64145	74675	82855	64170	5665	inactive
Drp1	DRSC00574	1.41e5	1.32e5	1.48e5	1.45e5	14392	inactive
Ir67a	DRSC09897	2.01e5	1.66e5	2.16e5	1.45e5	6700	inactive
CG9399	DRSC16488	55290	60415	39150	35715	3035	inactive
CG7083	DRSC11136	2.12e5	1.63e5	1.36e5	1.66e5	9565	inactive
zip	DRSC04725	1.58e5	1.75e5	1.74e5	1.55e5	12475	inactive
ATP8A	DRSC05421	1.78e5	1.75e5	2.22e5	2.82e5	19045	inactive
ATP8A	DRSC06643	1.63e5	1.35e5	1.34e5	1.19e5	11120	inactive
ATP8A	DRSC06644	96495	88235	1.14e5	96910	7820	inactive

Continued; the last 9 above are carried over.
target gene	dsRNA	induced reporter light, run 1, well a	induced reporter light, run 1, well b	control promoter light, run 1, well a	control promoter light, run 1, well b	uninduced reporter light, run 1, well a	outcome
CG32642	DRSC18959	64145	74675	82855	64170	5665	inactive
Drp1	DRSC00574	1.41e5	1.32e5	1.48e5	1.45e5	14392	inactive
Ir67a	DRSC09897	2.01e5	1.66e5	2.16e5	1.45e5	6700	inactive
CG9399	DRSC16488	55290	60415	39150	35715	3035	inactive
CG7083	DRSC11136	2.12e5	1.63e5	1.36e5	1.66e5	9565	inactive
zip	DRSC04725	1.58e5	1.75e5	1.74e5	1.55e5	12475	inactive
ATP8A	DRSC05421	1.78e5	1.75e5	2.22e5	2.82e5	19045	inactive
ATP8A	DRSC06643	1.63e5	1.35e5	1.34e5	1.19e5	11120	inactive
ATP8A	DRSC06644	96495	88235	1.14e5	96910	7820	inactive
cN-IIIB	DRSC04359	2.09e5	1.75e5	1.87e5	1.69e5	14255	inactive
CG11060	DRSC06029	78630	76805	63410	61495	5890	inactive
CG18048	DRSC12573	73695	1.09e5	93440	66615	6485	inactive
cpx	DRSC11999	2.20e5	2.56e5	2.53e5	2.71e5	17245	inactive
Akt	DRSC14108	1.02e5	1.28e5	1.48e5	1.55e5	13110	inactive
wmd	DRSC04436	1.45e5	1.36e5	1.03e5	1.33e5	13830	inactive
tth	DRSC19435	76620	65395	36605	37795	11585	inactive
CG42750	DRSC02458	70690	70720	63490	59745	7230	inactive
CG42750	DRSC03019	1.71e5	1.98e5	1.74e5	2.01e5	15840	inactive
CG42750	DRSC03024	1.32e5	1.48e5	1.49e5	1.41e5	14800	inactive
CG9921	DRSC20220	2.04e5	2.11e5	2.59e5	2.33e5	13175	inactive
TSG101	DRSC11098	2.36e5	2.40e5	2.61e5	1.73e5	10000	inactive
CG10444	DRSC05990	81995	65620	1.44e5	1.74e5	6488	inactive
Tsp74F	DRSC10508	1.77e5	1.58e5	2.01e5	2.37e5	7828	inactive
Or94a	DRSC16772	1.62e5	1.62e5	2.10e5	2.27e5	14270	inactive
cGlr1	DRSC06270	1.46e5	1.04e5	1.42e5	1.58e5	12900	inactive
dbr	DRSC00274	96175	2.12e5	2.14e5	2.90e5	18050	inactive
EcR	DRSC04906	1.33e5	1.18e5	1.33e5	1.24e5	10215	inactive
EcR	DRSC04910	1.98e5	2.51e5	1.70e5	2.12e5	15400	inactive
Sfp93F	DRSC13505	2.33e5	3.03e5	3.55e5	4.03e5	16255	inactive
Rnp4F	DRSC18706	2.48e5	1.90e5	2.51e5	2.50e5	17288	inactive
CG18130	DRSC19790	1.29e5	1.23e5	2.34e5	2.13e5	10485	inactive
CG33170	DRSC11854	98045	81040	80905	80955	5000	inactive
ND-ACP	DRSC08724	67085	81130	1.17e5	1.47e5	5135	inactive
CG10587	DRSC11627	1.29e5	95915	1.07e5	85205	9550	inactive
Elba1	DRSC00276	1.79e5	1.98e5	2.00e5	1.65e5	13340	inactive
7SLRNA:CR42652 + 7SLRNA:CR32864	DRSC22968						active
axed	DRSC08833	1.91e5	1.92e5	2.04e5	2.03e5	13890	inactive
axed	DRSC10982	2.14e5	1.81e5	2.23e5	2.04e5	8970	inactive
asrij	DRSC04175	1.93e5	1.81e5	1.85e5	1.33e5	13490	inactive
CG6847	DRSC19213	96745	1.03e5	1.03e5	97950	8375	inactive
CG6847	DRSC20009	78535	87265	80360	72465	10225	inactive
FucTC	DRSC20966	1.84e5	2.35e5	2.78e5	2.98e5	18110	inactive
tap	DRSC11402	1.63e5	1.35e5	2.01e5	1.79e5	6715	inactive
WRNexo	DRSC16278	1.40e5	1.66e5	1.95e5	1.83e5	11640	inactive
